According to patent publication EP0013144A1, “Substituted diphenylamine derivatives, compositions and herbicidal uses thereof, and processes for their preparation” (ICI AUSTRALIA LIMITED, priority 1978, dated 1980):
The name of at least one read-out is uncertain.

Key:
Experiment in all cases: Post-emergence herbicidal activity (Example 32)
Format in all cases: in vivo
Details in all cases: 3 weeks after spraying
Ipomea = test system: Ipomea
Experimental: (§1) Concentrated formulations of the compounds of the invention were prepared by: • a) in the case of oils and waxy solids, dissolving the compound in toluene containing 7% v/v "Teric" N13 ("Teric" is a Trade MarK and "Teric" N13, a product of ethoxylation of nonylphenol, is available from ICI Australia Limited) and 3% v/v "Kemmat" SC15B ("Kemmat" is a Trade Mark and "Kemmat" SC15B is a formulation of calcium dodecylbenzene sulfonate); or • b) in the case of crystalline solids, adding 5 parts by weight of the compound and 1 part by weight of . ''Dyapol" PT ("Dyapol" is a Trade Mark and "Dyapol" PT is an anionic suspending agent) to 94 parts by weight of an aqueous solution containing 0.25% v/v of "Teric" N8 (a product of ethoxylation of nonylphenol) and ball-milling the mixture to produce a stable suspension. The emulsifiable concentrates and suspensions were then diluted with water to give an aqueous composition of the required concentration suitable for use in the evaluation of the pre-emergence and post-emergence herbicidal activity of the compounds of the invention.
(§2) The post-emergent herbicidal activity of the compounds of the invention formulated as described in Example 30 was assessed by the following procedure.
(§3) The seeds of the test species were sown in rows 2 cm deep in soil contained in seed boxes. The monocotyledonous plants and the dicotyledonous plants were sown in separate seed boxes in duplicate. The four seed boxes were placed in a glasshouse, lightly watered with an overhead spray to initiate germination and then sub-irrigated as required for optimum plant growth. After the plants had grown to a height of about 10 to 12.5 cm one box of each of the monocotyledonous plants and the dicotyledonous plants was removed from the glasshouse and sprayed with the required quantity of a composition of the invention. After spraying the boxes were returned to the glasshouse for further 3 weeks and the effects of the treatment was visually assessed by comparison with the untreated controls. The results are presented in Table 4 where the damage to plants is rated on a scale of from 0 to 3 where 0 represents 0 to 25% damage, 3 represents 75 to 99% kill and 3+ represents 100% kill. A dash (-) means that no experiment was carried out.

Mustard = test system: Mustard
Experimental: as §1, §2, §3

Wild Oats = test system: Wild Oats
Experimental: as §1, §2, §3

COC(=O)C(C)Oc1ccc(Nc2ccc([N+](=O)[O-])cc2[N+](=O)[O-])cc1 (stereo not shown) [Compound 15]
0 (0 represents 0 to 25% damage): damage to plants, Ip (Ipomea; 1 kg/ha) | damage to plants, Ip (Ipomea; 5 kg/ha) | damage to plants, Ms (Mustard; 5 kg/ha) | damage to plants, Ot (Wild Oats; 1 kg/ha)
3 (3 represents 75 to 99% kill): damage to plants, Ip (Ipomea; 10 kg/ha) | damage to plants, Ms (Mustard; 10 kg/ha) | damage to plants, Ot (Wild Oats; 5 kg/ha)
